These are yes or no findings as the source states them, for the method shown. One block for each binder: values may come before it.
Key:
[1] = molecular target: CYRI-B (FAM49B) from Rhincodon typus (whale shark), native protein (Rhincodon typus (whale shark)); experiment: native gel or EMSA; 7% native PAGE under non-reducing conditions, Instant Blue stain; single band; both purified
[2] = molecular target: CYRI-B (FAM49B) from Rhincodon typus (whale shark), native protein (Rhincodon typus (whale shark)); experiment: SEC; analytical SEC, Superdex 75 10/300 GL, room temperature, 20 mM Tris pH 7.5, 150 mM NaCl, 5 mM beta-mercaptoethanol; 0.5 mg native or 0.3 mg SeMet protein in 100 µl; single peak close to 30 kDa; both purified
[3] = molecular target: Selenomethionine (SeMet)-derivatized CYRI-B (FAM49B) from Rhincodon typus (Rhincodon typus (whale shark)); experiment: native gel or EMSA; 7% native PAGE under non-reducing conditions, Instant Blue stain; single band; both purified
[4] = molecular target: Selenomethionine (SeMet)-derivatized CYRI-B (FAM49B) from Rhincodon typus (Rhincodon typus (whale shark)); experiment: SEC; analytical SEC, Superdex 75 10/300 GL, room temperature, 20 mM Tris pH 7.5, 150 mM NaCl, 5 mM beta-mercaptoethanol; 0.5 mg native or 0.3 mg SeMet protein in 100 µl; single peak close to 30 kDa; both purified

binding [1]: no binding
B1: CYRI-B (FAM49B) from Rhincodon typus (whale shark), native protein (protein, UniProt A0A7M4DUF3 1-325)
chain: SMGNLIKVLTRDIDHNASHFFLDFENAQPTEAEREIFNQVNVVLKDAEGILNDLQSYRGAGHEIREAIQHPNDENLQEKAWSAVCPLVGKLKKFYEFSQRLEAALHGLLGALTSTPYSPTQHLEREQALAKQFAEILHFTLRFDELKMTNPAIQNDFSYYRRTLSRMRINNVPAEGENEVNNELANRMSLFYAEATPMLKTLSDATTKFVSDNKSLPIENTTDCLSTMASVCRVMLETPEYRSRFASEETVSFCLRVMVGVIILYDHVHPVGAFAKTSKIDMKGCIKVLKDQPPNSVEGLLNALRYTTKHLNDETTSKQIKTMLQ
binding [2]: no binding (tested: 0.5 mg in 100 µl applied)

binding [3]: no binding
B2: Selenomethionine (SeMet)-derivatized CYRI-B (FAM49B) from Rhincodon typus (protein, UniProt A0A7M4DUF3 1-325)
chain: B1 chain
modifications: selenomethionine (SeMet-derivatized)
binding [4]: no binding (tested: 0.3 mg in 100 µl applied)

Source: PMC7543656
